# Patent US8080647B2 (priority 2006, dated 2011)
# Chains of the proteins cited; added tags and fusions are not shown. Lines headed by an entry give the natural chain unless they say otherwise; changes in a name come on top. A line that says so, or that is headed by a name, gives the form on record, which may keep a tag or linker.
# UniProt P04483, other isoform, or with tags, fused parts or gaps: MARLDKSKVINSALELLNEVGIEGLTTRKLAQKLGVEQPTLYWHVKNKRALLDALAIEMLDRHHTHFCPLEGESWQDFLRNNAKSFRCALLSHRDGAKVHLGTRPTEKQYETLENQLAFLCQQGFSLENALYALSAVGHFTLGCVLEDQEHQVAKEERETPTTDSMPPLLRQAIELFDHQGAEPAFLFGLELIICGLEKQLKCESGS
# For at least one compound, name, drawing or mass did not settle the structure.
# Experiments:
# Type in all cases: cell-based, E. coli
# [1] = target: T1, tetracycline repressor (Escherichia coli, UniProt P04483)
# T1 construct: expressed in transfected cells; host or cells: Zea mays Hi-II callus and regenerated plants, stably transformed via Agrobacterium (ubi pro::moTetR)
# [2] = target: T1, tetracycline repressor; conditions: 1 mg/L tetracycline for 24 hours; leaves, roots, stem, immature ear, silks, ovules, embryos, tassel, anthers, pollen
# [3] = target: T2, tetracycline repressor (Escherichia coli, UniProt P04483, S2A); experiment: Fluorometric quantitative DsRED assay of callus protein extracts; conditions: 12.5 mg/L tetracycline
# T2 construct: expressed in transfected cells; host or cells: Zea mays Hi-II callus and regenerated plants, stably transformed via Agrobacterium (ubi pro::moTetR)
# [4] = target: T1, tetracycline repressor; experiment: rtPCR of tetracycline-induced ODP2 expression in PHP25271 Hi-II maize callus events; set-up: key to ODP2 rtPCR band: Blank = no observable band; “~” indicates a weak band; “+” indicates a strong band
# [5] = of a total of 100 bialaphos-resistant PHP24683 events
smiles,measurement,setting,value
CN(C)[C@@H]1C(O)=C(C(N)=O)C(=O)[C@@]2(O)C(O)=C3C(=O)c4c(O)cccc4[C@@](C)(O)[C@H]3C[C@@H]12 [tetracycline],red fluorescence (DsRED) of callus,"[1]; PHP24683 callus subcultured onto 12.5 mg/L tetracycline, after 24 hours",red fluorescence was observed
same,lowest inducer concentration at which red fluorescence was detected by microscopic evaluation,[1]; PHP24683 maize events,0.1 mg/L
same,events that failed to induce in the presence of the ligand,[1]; [5],13
same,events with inducible DsRED expression upon exposure to tetracycline and no leaky expression without ligand,[1]; [5],87
same,red fluorescence in plant parts,[2],strong red fluorescence was observed in all plant parts examined
same,transgenic events exhibiting red fluorescence,[3]; 10 bialaphos-resistant calli,9/10
same,DsRED in callus protein extract,"[3]; Event 489, 24 hr",0.32 ng DsRED/mg total protein
same,DsRED in callus protein extract,"[3]; Event 489, 48 hr",1.36 ng DsRED/mg total protein
same,DsRED in callus protein extract,"[3]; Event 489, 72 hr",1.03 ng DsRED/mg total protein
same,DsRED in callus protein extract,"[3]; Event 490, 24 hr",0.23 ng DsRED/mg total protein
same,DsRED in callus protein extract,"[3]; Event 490, 48 hr",0.70 ng DsRED/mg total protein
same,DsRED in callus protein extract,"[3]; Event 490, 72 hr",0.98 ng DsRED/mg total protein
same,DsRED in callus protein extract,"[3]; Event 491, 24 hr",0.13 ng DsRED/mg total protein
same,DsRED in callus protein extract,"[3]; Event 491, 48 hr",0.50 ng DsRED/mg total protein
same,DsRED in callus protein extract,"[3]; Event 491, 72 hr",0.57 ng DsRED/mg total protein
same,DsRED in callus protein extract,"[3]; Event 492, 24 hr",0.12 ng DsRED/mg total protein
same,DsRED in callus protein extract,"[3]; Event 492, 48 hr",0.41 ng DsRED/mg total protein
same,DsRED in callus protein extract,"[3]; Event 492, 72 hr",0.24 ng DsRED/mg total protein
same,DsRED in callus protein extract,"[3]; Event 493, 24 hr",0 ng DsRED/mg total protein
same,DsRED in callus protein extract,"[3]; Event 493, 48 hr",0.23 ng DsRED/mg total protein
same,DsRED in callus protein extract,"[3]; Event 493, 72 hr",0 ng DsRED/mg total protein
same,DsRED in callus protein extract,"[3]; Event 494, 24 hr",0.24 ng DsRED/mg total protein
same,DsRED in callus protein extract,"[3]; Event 494, 48 hr",0.63 ng DsRED/mg total protein
same,DsRED in callus protein extract,"[3]; Event 494, 72 hr",0.77 ng DsRED/mg total protein
same,DsRED in callus protein extract,"[3]; Event 495, 24 hr",0 ng DsRED/mg total protein
same,DsRED in callus protein extract,"[3]; Event 495, 48 hr",0 ng DsRED/mg total protein
same,DsRED in callus protein extract,"[3]; Event 495, 72 hr",0.29 ng DsRED/mg total protein
same,DsRED in callus protein extract,"[3]; Event 497, 24 hr",0 ng DsRED/mg total protein
same,DsRED in callus protein extract,"[3]; Event 497, 48 hr",0.35 ng DsRED/mg total protein
same,DsRED in callus protein extract,"[3]; Event 497, 72 hr",0.80 ng DsRED/mg total protein
same,DsRED in callus protein extract,"[3]; Event 503, 24 hr",0 ng DsRED/mg total protein
same,DsRED in callus protein extract,"[3]; Event 503, 48 hr",0 ng DsRED/mg total protein
same,DsRED in callus protein extract,"[3]; Event 503, 72 hr",0 ng DsRED/mg total protein
same,DsRED in callus protein extract,"[3]; Event 517, 24 hr",0 ng DsRED/mg total protein
same,DsRED in callus protein extract,"[3]; Event 517, 48 hr",0.23 ng DsRED/mg total protein
same,DsRED in callus protein extract,"[3]; Event 517, 72 hr",0.76 ng DsRED/mg total protein
same,ODP2 rtPCR signals after removal of the ligand,"[4]; 2 days on TC, then 5 additional days in culture without TC",reduced in strength or were absent
same,ODP2 rtPCR band,"[4]; Callus Event C1, Tet 0.25 mg/L 2 days, then 5 days without TC",+
same,ODP2 rtPCR band,"[4]; Callus Event C1, Tet 0.25 mg/L, 2 days",+
same,ODP2 rtPCR band,"[4]; Callus Event C1, Tet 0.5 mg/L, 2 days",+
same,ODP2 rtPCR band,"[4]; Callus Event C1, Tet 1.0 mg/L 2 days, then 5 days without TC",+
same,ODP2 rtPCR band,"[4]; Callus Event C1, Tet 1.0 mg/L, 2 days",+
same,ODP2 rtPCR band,"[4]; Callus Event C1, Tet 2.0 mg/L, 2 days",+
same,ODP2 rtPCR band,"[4]; Callus Event C1, Tet 5.0 mg/L 2 days, then 5 days without TC",+
same,ODP2 rtPCR band,"[4]; Callus Event C1, Tet 5.0 mg/L, 2 days",~
same,ODP2 rtPCR band,"[4]; Callus Event C1, Tet 10.0 mg/L 2 days, then 5 days without TC",+
same,ODP2 rtPCR band,"[4]; Callus Event C1, Tet 10.0 mg/L, 2 days",+
same,ODP2 rtPCR band,"[4]; Callus Event C1, Tet 20.0 mg/L 2 days, then 5 days without TC",+
same,ODP2 rtPCR band,"[4]; Callus Event C1, Tet 20.0 mg/L, 2 days",+
same,ODP2 rtPCR band,"[4]; Callus Event C2, Tet 0.25 mg/L, 2 days",~
same,ODP2 rtPCR band,"[4]; Callus Event C2, Tet 0.5 mg/L, 2 days",+
same,ODP2 rtPCR band,"[4]; Callus Event C2, Tet 2.0 mg/L, 2 days",+
same,ODP2 rtPCR band,"[4]; Callus Event C2, Tet 20.0 mg/L 2 days, then 5 days without TC",~
same,ODP2 rtPCR band,"[4]; Callus Event C2, Tet 20.0 mg/L, 2 days",+
same,ODP2 rtPCR band,"[4]; Callus Event C3, Tet 0.25 mg/L 2 days, then 5 days without TC",+
same,ODP2 rtPCR band,"[4]; Callus Event C3, Tet 0.25 mg/L, 2 days",+
same,ODP2 rtPCR band,"[4]; Callus Event C3, Tet 0.5 mg/L 2 days, then 5 days without TC",+
same,ODP2 rtPCR band,"[4]; Callus Event C3, Tet 0.5 mg/L, 2 days",+
same,ODP2 rtPCR band,"[4]; Callus Event C3, Tet 1.0 mg/L, 2 days",+
same,ODP2 rtPCR band,"[4]; Callus Event C3, Tet 2.0 mg/L, 2 days",+
same,ODP2 rtPCR band,"[4]; Callus Event C3, Tet 5.0 mg/L 2 days, then 5 days without TC",+
same,ODP2 rtPCR band,"[4]; Callus Event C3, Tet 5.0 mg/L, 2 days",+
same,ODP2 rtPCR band,"[4]; Callus Event C3, Tet 10.0 mg/L 2 days, then 5 days without TC",+
same,ODP2 rtPCR band,"[4]; Callus Event C3, Tet 10.0 mg/L, 2 days",~
same,ODP2 rtPCR band,"[4]; Callus Event C3, Tet 20.0 mg/L 2 days, then 5 days without TC",+
same,ODP2 rtPCR band,"[4]; Callus Event C3, Tet 20.0 mg/L, 2 days",+
same,ODP2 rtPCR band,"[4]; Callus Event C4, Tet 0.25 mg/L, 2 days",+
same,ODP2 rtPCR band,"[4]; Callus Event C4, Tet 0.5 mg/L, 2 days",+
same,ODP2 rtPCR band,"[4]; Callus Event C4, Tet 1.0 mg/L 2 days, then 5 days without TC",+
same,ODP2 rtPCR band,"[4]; Callus Event C4, Tet 1.0 mg/L, 2 days",+
same,ODP2 rtPCR band,"[4]; Callus Event C4, Tet 2.0 mg/L 2 days, then 5 days without TC",+
same,ODP2 rtPCR band,"[4]; Callus Event C4, Tet 5.0 mg/L 2 days, then 5 days without TC",+
same,ODP2 rtPCR band,"[4]; Callus Event C4, Tet 5.0 mg/L, 2 days",+
same,ODP2 rtPCR band,"[4]; Callus Event C4, Tet 10.0 mg/L 2 days, then 5 days without TC",+
same,ODP2 rtPCR band,"[4]; Callus Event C4, Tet 10.0 mg/L, 2 days",+
same,ODP2 rtPCR band,"[4]; Callus Event C4, Tet 20.0 mg/L 2 days, then 5 days without TC",+
same,ODP2 rtPCR band,"[4]; Callus Event C4, Tet 20.0 mg/L, 2 days",+
same,ODP2 rtPCR band,"[4]; Callus Event C6, Tet 0.25 mg/L, 2 days",+
same,ODP2 rtPCR band,"[4]; Callus Event C6, Tet 0.5 mg/L, 2 days",+
same,ODP2 rtPCR band,"[4]; Callus Event C6, Tet 1.0 mg/L 2 days, then 5 days without TC",+
same,ODP2 rtPCR band,"[4]; Callus Event C6, Tet 1.0 mg/L, 2 days",~
same,ODP2 rtPCR band,"[4]; Callus Event C6, Tet 2.0 mg/L, 2 days",+
same,ODP2 rtPCR band,"[4]; Callus Event C6, Tet 5.0 mg/L 2 days, then 5 days without TC",+
same,ODP2 rtPCR band,"[4]; Callus Event C6, Tet 5.0 mg/L, 2 days",+
same,ODP2 rtPCR band,"[4]; Callus Event C6, Tet 10.0 mg/L 2 days, then 5 days without TC",+
same,ODP2 rtPCR band,"[4]; Callus Event C6, Tet 10.0 mg/L, 2 days",+
same,ODP2 rtPCR band,"[4]; Callus Event C6, Tet 20.0 mg/L 2 days, then 5 days without TC",+
same,ODP2 rtPCR band,"[4]; Callus Event C6, Tet 20.0 mg/L, 2 days",+
same,ODP2 rtPCR band,"[4]; Callus Event C7, Tet 0.25 mg/L, 2 days",+
same,ODP2 rtPCR band,"[4]; Callus Event C7, Tet 2.0 mg/L 2 days, then 5 days without TC",+
same,ODP2 rtPCR band,"[4]; Callus Event C7, Tet 2.0 mg/L, 2 days",+
same,ODP2 rtPCR band,"[4]; Callus Event C7, Tet 5.0 mg/L, 2 days",+
same,ODP2 rtPCR band,"[4]; Callus Event C7, Tet 10.0 mg/L, 2 days",+
same,ODP2 rtPCR band,"[4]; Callus Event C7, Tet 20.0 mg/L 2 days, then 5 days without TC",+
same,ODP2 rtPCR band,"[4]; Callus Event C7, Tet 20.0 mg/L, 2 days",+
same,ODP2 rtPCR band,"[4]; Callus Event C8, Tet 0.25 mg/L, 2 days",+
same,ODP2 rtPCR band,"[4]; Callus Event C8, Tet 0.5 mg/L, 2 days",+
same,ODP2 rtPCR band,"[4]; Callus Event C8, Tet 1.0 mg/L 2 days, then 5 days without TC",+
same,ODP2 rtPCR band,"[4]; Callus Event C8, Tet 1.0 mg/L, 2 days",+
same,ODP2 rtPCR band,"[4]; Callus Event C8, Tet 2.0 mg/L 2 days, then 5 days without TC",+
same,ODP2 rtPCR band,"[4]; Callus Event C8, Tet 2.0 mg/L, 2 days",+
same,ODP2 rtPCR band,"[4]; Callus Event C8, Tet 10.0 mg/L 2 days, then 5 days without TC",+
same,ODP2 rtPCR band,"[4]; Callus Event C8, Tet 10.0 mg/L, 2 days",+
same,ODP2 rtPCR band,"[4]; Callus Event C8, Tet 20.0 mg/L 2 days, then 5 days without TC",+
same,ODP2 rtPCR band,"[4]; Callus Event C8, Tet 20.0 mg/L, 2 days",+
same,ODP2 rtPCR band,"[4]; Callus Event C9, Tet 0.25 mg/L, 2 days",+
same,ODP2 rtPCR band,"[4]; Callus Event C9, Tet 0.5 mg/L, 2 days",+
same,ODP2 rtPCR band,"[4]; Callus Event C9, Tet 1.0 mg/L, 2 days",+
same,ODP2 rtPCR band,"[4]; Callus Event C9, Tet 2.0 mg/L 2 days, then 5 days without TC",+
same,ODP2 rtPCR band,"[4]; Callus Event C9, Tet 2.0 mg/L, 2 days",+
same,ODP2 rtPCR band,"[4]; Callus Event C9, Tet 5.0 mg/L 2 days, then 5 days without TC",~
same,ODP2 rtPCR band,"[4]; Callus Event C9, Tet 5.0 mg/L, 2 days",+
same,ODP2 rtPCR band,"[4]; Callus Event C9, Tet 10.0 mg/L 2 days, then 5 days without TC",+
same,ODP2 rtPCR band,"[4]; Callus Event C9, Tet 10.0 mg/L, 2 days",+
same,ODP2 rtPCR band,"[4]; Callus Event C9, Tet 20.0 mg/L, 2 days",+
same,ODP2 rtPCR band,"[4]; Callus Event C10, Tet 0.25 mg/L, 2 days",~
same,ODP2 rtPCR signal across callus events,"[4]; TC concentrations between 0.25 and 20 mg/L, 2 days",the majority of callus events produced strong signals
same,ODP2 expression in events C5 and C10,[4]; any TC concentration,little or no ODP2 expression
